Reference: patent US6605443
No constants are given. Whether binding was seen depends on the method and setting. Binding seen in cells or lysates may run through a third protein. Some binding calls cover weakened binding; strength is not graded here. For some assays here: Sequences can lack the tags named with a protein.

By UniProt entry, the sequences of proteins in these tests, tags left out. Where a name states a change or a piece, a line headed by the entry shows the natural chain unless it says otherwise. Residues count along the entry.
UniProt O00238, residues 14-502: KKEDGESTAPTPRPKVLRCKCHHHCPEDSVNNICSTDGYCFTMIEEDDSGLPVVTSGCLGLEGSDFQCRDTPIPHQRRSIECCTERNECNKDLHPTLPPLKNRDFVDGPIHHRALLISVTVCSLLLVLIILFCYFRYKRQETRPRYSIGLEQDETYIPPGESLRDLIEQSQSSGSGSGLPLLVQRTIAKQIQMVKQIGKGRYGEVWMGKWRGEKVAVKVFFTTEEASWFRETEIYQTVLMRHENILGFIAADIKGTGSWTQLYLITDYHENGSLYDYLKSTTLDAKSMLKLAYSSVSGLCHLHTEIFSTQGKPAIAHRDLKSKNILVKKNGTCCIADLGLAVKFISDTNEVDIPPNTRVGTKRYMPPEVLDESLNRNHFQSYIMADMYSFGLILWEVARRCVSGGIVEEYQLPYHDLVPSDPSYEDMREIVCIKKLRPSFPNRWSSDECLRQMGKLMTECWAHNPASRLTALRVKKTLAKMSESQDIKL
UniProt P36897: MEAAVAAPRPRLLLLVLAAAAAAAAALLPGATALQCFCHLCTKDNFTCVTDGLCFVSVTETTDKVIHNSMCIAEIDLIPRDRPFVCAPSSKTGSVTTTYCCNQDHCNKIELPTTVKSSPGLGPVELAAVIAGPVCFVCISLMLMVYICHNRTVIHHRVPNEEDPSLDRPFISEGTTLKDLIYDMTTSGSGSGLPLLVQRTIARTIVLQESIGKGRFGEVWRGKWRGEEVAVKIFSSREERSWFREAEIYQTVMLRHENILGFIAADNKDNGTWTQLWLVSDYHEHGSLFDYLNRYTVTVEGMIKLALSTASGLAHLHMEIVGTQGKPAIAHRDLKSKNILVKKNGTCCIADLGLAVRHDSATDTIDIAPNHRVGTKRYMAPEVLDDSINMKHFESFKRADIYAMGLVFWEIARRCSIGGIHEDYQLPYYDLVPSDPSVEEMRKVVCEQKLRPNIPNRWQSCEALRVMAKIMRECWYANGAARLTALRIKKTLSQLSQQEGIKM
UniProt P36894, residues 24-532: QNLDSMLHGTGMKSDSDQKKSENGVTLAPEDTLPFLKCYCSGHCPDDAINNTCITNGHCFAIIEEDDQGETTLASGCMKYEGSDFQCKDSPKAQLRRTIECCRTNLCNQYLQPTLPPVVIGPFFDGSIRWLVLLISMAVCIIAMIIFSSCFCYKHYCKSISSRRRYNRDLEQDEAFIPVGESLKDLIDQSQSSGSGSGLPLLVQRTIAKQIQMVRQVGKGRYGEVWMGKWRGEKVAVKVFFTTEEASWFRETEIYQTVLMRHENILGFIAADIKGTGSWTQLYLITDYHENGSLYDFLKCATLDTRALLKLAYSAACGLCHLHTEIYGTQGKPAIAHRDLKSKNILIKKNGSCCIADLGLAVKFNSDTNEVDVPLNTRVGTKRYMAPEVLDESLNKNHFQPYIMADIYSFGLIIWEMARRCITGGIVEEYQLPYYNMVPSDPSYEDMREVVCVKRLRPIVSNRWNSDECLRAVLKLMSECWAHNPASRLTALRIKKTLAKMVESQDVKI
UniProt O35253: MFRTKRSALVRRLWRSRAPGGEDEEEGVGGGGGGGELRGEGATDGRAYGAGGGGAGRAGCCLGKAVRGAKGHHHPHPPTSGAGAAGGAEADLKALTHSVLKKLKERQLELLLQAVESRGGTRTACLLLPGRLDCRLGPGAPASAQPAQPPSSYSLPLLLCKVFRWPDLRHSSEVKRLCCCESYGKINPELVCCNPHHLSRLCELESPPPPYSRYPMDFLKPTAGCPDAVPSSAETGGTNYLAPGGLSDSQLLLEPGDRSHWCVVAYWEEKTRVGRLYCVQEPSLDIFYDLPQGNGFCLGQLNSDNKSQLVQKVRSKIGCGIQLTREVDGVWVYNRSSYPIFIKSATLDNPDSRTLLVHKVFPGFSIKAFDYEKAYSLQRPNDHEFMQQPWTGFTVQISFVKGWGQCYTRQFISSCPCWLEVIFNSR

What was measured:
[1] = target: BMPR-IB tagged at C-terminus with HA epitope (co-expressed with BMPR-II) (UniProt O00238); assay: co-immunoprecipitation of affinity-labeled receptors, COS cells
[2] = target: T1, ActR-I tagged at C-terminus with HA epitope (co-expressed with BMPR-II) (UniProt Q04771); assay: as above
T1 sequence (looked up): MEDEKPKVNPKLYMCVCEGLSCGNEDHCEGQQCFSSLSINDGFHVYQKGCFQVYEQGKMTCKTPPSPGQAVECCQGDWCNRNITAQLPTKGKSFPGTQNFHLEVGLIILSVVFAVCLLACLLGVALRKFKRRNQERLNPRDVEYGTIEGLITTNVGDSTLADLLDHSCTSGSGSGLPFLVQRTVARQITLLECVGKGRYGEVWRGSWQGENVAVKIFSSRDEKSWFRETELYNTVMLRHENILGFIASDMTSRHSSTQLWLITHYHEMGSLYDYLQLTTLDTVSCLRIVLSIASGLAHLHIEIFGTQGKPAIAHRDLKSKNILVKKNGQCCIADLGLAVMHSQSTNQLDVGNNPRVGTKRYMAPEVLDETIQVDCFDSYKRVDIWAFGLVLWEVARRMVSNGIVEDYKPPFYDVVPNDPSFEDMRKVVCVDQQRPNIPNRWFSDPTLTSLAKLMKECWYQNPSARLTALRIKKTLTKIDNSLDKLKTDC

[3] = target: TGF-β receptor complex (wild-type TβR-I in complex with wild-type TβR-II) (UniProt P36897); assay: as above
[4] = target: BMPR-IA tagged at C-terminus with HA epitope (co-expressed with BMPR-II) (UniProt P36894); assay: as above
[5] = target: BMPR-IB tagged at C-terminus with HA epitope (co-expressed with BMPR-II) (UniProt O00238); assay: summary of the co-immunoprecipitation examples
[6] = target: BMPR-IA tagged at C-terminus with HA epitope (co-expressed with BMPR-II) (UniProt P36894); assay: summary of the co-immunoprecipitation examples
[7] = target: BMPR-IB tagged at C-terminus with HA epitope (co-expressed with BMPR-II) (UniProt O00238); assay: co-immunoprecipitation, cultured mammalian cells
[8] = target: BMPR-IA tagged at C-terminus with HA epitope (co-expressed with BMPR-II) (UniProt P36894); assay: co-immunoprecipitation, cultured mammalian cells
[9] = target: TGF-β receptor complex (wild-type TβR-I in complex with wild-type TβR-II) (UniProt P36897); assay: co-immunoprecipitation with Flag antiserum of 125I-TGF-β1 affinity-labeled receptors, COS cells
[10] = target: BMPR-IB tagged at C-terminus with HA epitope (co-expressed with BMPR-II) (UniProt O00238); assay: co-immunoprecipitation with Flag antibody of 125I-BMP-7 affinity-labeled receptors, COS cells
[11] = target: T1, ActR-I tagged at C-terminus with HA epitope (co-expressed with BMPR-II); assay: as above
[12] = target: BMPR-IA tagged at C-terminus with HA epitope (co-expressed with BMPR-II) (UniProt P36894); assay: as above
[13] = target: TGF-β receptor complex (wild-type TβR-I in complex with wild-type TβR-II) (UniProt P36897); assay: co-immunoprecipitation of 125I-TGF-β1 affinity-labeled receptors, COS cells

binding [1] | binding [2] | binding [3] | binding [4] | binding [5] | binding [6] | binding [7] | binding [8] | binding [9] | binding [10] | binding [11] | binding [12] | binding [13] | Substance
binds | binds | binds | binds | binds | binds | binds | binds | binds | binds | binds | binds | – | N-terminally Flag-tagged Smad7 (F-Smad7) (from UniProt O35253 1-426)
– | – | binds | – | – | – | – | – | – | – | – | – | binds | N-terminally Flag tagged mouse Smad7 C-terminal domain (amino acids 204-426 of mSmad7) (from UniProt O35253 204-426)
